Source: PMC7819943, “Rice protein-binding microarrays: a tool to detect cis-acting elements near promoter regions in rice”
The list shows a part of the results.

By UniProt entry, the sequences of proteins in these tests, tags left out.
UniProt Q0JBA9, entry or part of it: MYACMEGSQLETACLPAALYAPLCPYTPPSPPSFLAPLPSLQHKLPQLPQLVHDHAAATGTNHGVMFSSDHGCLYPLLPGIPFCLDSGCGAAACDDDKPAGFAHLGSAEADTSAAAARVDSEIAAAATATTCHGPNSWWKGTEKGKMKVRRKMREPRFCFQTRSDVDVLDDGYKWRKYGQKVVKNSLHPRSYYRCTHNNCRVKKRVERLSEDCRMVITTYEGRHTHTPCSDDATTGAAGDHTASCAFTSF

What follows are sequences tested against OsWRKY34 (Oryza sativa, UniProt Q0JBA9 1-250) (assay: protein-binding microarray (RPBM); PBS, 2% BSA, 51.3 ng/ul salmon testes DNA, 50 uM zinc acetate, 200 nM TF, 25 C, 1 h; high values mean tight binding). Conditions: protein: recombinant; tags: N-terminal polyhistidine and DsRed monomer fusion (pET32a); label: CyDye5-dUTP incorporated in the synthesized complementary strand; 3' TTTTT single-stranded linker to array surface; dsDNA, one strand shown.
How it was run: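 The binding signal is fluorescence intensity per array feature (arbitrary units). Readings came from an Axon 4000B scanner after a washed, 2% BSA-blocked, double-stranded custom Agilent array had been incubated for 1 h at 25 °C with 200 nM protein and 50 µM zinc acetate. The protein was a Ni–NTA-purified transcription factor fused N-terminally to polyhistidine and DsRed, expressed in E. coli BL21-CodonPlus.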

Sequence	binding signal
TTATACTACACAACGAATATGGACCGTTCTTGCTTCTTTTCGGAGTCACCTAGTGCAG	9130 fluorescence intensity (a.u.)
GACAGCTTCTAAAATTCTGCAAATTCCACGTGAAACAGTTCGGAGTCACCTAGTGCAG	8120 fluorescence intensity (a.u.)
ATTCCATCCATTCTCTGGGAATCGCCGTCGCCGTCGCCTTCGGAGTCACCTAGTGCAG	8200 fluorescence intensity (a.u.)
TCTACTAGCCTACTACCCCACAGCAGCCAGGAACCAGCCACGGAGTCACCTAGTGCAG	8580 fluorescence intensity (a.u.)
GGGGCAATTCAGGTGAGATCCCATGTAGATCTAACTTTCTCGGAGTCACCTAGTGCAG	8430 fluorescence intensity (a.u.)
GTTATCATGGTTATCATGTGCGGTAGCCTTTTTAGTTTTTCGGAGTCACCTAGTGCAG	10800 fluorescence intensity (a.u.)
TCCGCTGCTGATCGAGCACATATGCTGAAATCTCTAATTCCGGAGTCACCTAGTGCAG	8040 fluorescence intensity (a.u.)
GATCTACAACTTTTATTTTGGTCATTTTTTCATCCGATCACGGAGTCACCTAGTGCAG	11100 fluorescence intensity (a.u.)
GCACCCATTCCCGTGTTGTGCGTTGTTTTTTTAGCGATTTCGGAGTCACCTAGTGCAG	8660 fluorescence intensity (a.u.)
CTTAGGCCCGGTTCTTTTCTAAATAAAAATTGATTTCTTTCGGAGTCACCTAGTGCAG	8390 fluorescence intensity (a.u.)
CAAGGACACATAGCTTCGCTGCCGCCACACCCGACTATTACGGAGTCACCTAGTGCAG	9710 fluorescence intensity (a.u.)
GTCTCGCAATTTCTTCTCTAACTGTGCAATTAGTTTTTTACGGAGTCACCTAGTGCAG	9090 fluorescence intensity (a.u.)
CGTGAGATCGAAACCACAGCTGCTCTGAGTTGACCTCCTTCGGAGTCACCTAGTGCAG	8650 fluorescence intensity (a.u.)
CGCTCGGAGTTCGTCTGCCTCACCACCGTCGTCGCCATGCCGGAGTCACCTAGTGCAG	10200 fluorescence intensity (a.u.)
TGTTCCACTGTTGTGTGTGTGGCATTCTTGTACTGCATTTCGGAGTCACCTAGTGCAG	11900 fluorescence intensity (a.u.)
GCCCTGTCGCTCGAGTTCATCCGCGTATGCTTAGCCGCGTCGGAGTCACCTAGTGCAG	9460 fluorescence intensity (a.u.)
CGATCTTATTAAGCAGTCTATTTTCACCCTTATCTTTACTCGGAGTCACCTAGTGCAG	8100 fluorescence intensity (a.u.)
TCACCCGCGCCTGGTCCCACCCGTCATGGAGAATAACAAACGGAGTCACCTAGTGCAG	8480 fluorescence intensity (a.u.)
GCAGCGCCGCCTCCGCCGTCTCTATTTTCTTTTCTAGTTGCGGAGTCACCTAGTGCAG	8530 fluorescence intensity (a.u.)
ACAAAACCTGCCGTTTCACCGCCCCTGGATTGTCCCAGAACGGAGTCACCTAGTGCAG	8360 fluorescence intensity (a.u.)
TCCCCACCACGCACACCGTTGTAACAAATCACCTACATATCGGAGTCACCTAGTGCAG	8270 fluorescence intensity (a.u.)

Sequence	binding signal
GTTCCCGGCCACCGCGCACCGTATCGCCGCCGCCGCCGCGCGGAGTCACCTAGTGCAG	10500 fluorescence intensity (a.u.)
TCATTCCGCTACATCGATCTCTTGGGTCTTGGCTTGCCTGCGGAGTCACCTAGTGCAG	8960 fluorescence intensity (a.u.)
ACATTCTTTGCATCATATATTAGTAGGTTTATACTGAGCCCGGAGTCACCTAGTGCAG	8800 fluorescence intensity (a.u.)
CTCGTTCTCTCTCTCCCAGTCTCTCACTCTCGTTCTATCTCGGAGTCACCTAGTGCAG	15700 fluorescence intensity (a.u.)
ATCTGGCGCCATGCATCCATCTCGATTAGCTGTCAACGCTCGGAGTCACCTAGTGCAG	11900 fluorescence intensity (a.u.)
CCACGAGTGTAGTTGGTTGGTTCATGGTTGGGCTGCCTGGCGGAGTCACCTAGTGCAG	10000 fluorescence intensity (a.u.)
TTCCTTGTGCTCCTCTGTTCTTTCTTCTCCCCTACGATTTCGGAGTCACCTAGTGCAG	9500 fluorescence intensity (a.u.)
TTTGCTTCTTCTAGGCTTTTCTGTTTTATAAGGCCACTTTCGGAGTCACCTAGTGCAG	12500 fluorescence intensity (a.u.)
GTAGAAAAATCTGCACCGGAAGATCGCCGCCGTTCATTTCCGGAGTCACCTAGTGCAG	8410 fluorescence intensity (a.u.)
CGCCGCCATGTCCGCCGCCGCCGCCGCCCTCCGGCCGACCCGGAGTCACCTAGTGCAG	10100 fluorescence intensity (a.u.)
CACTTGTCAGTCGCACGTGCCCATCTCCAAACTCGCAACCCGGAGTCACCTAGTGCAG	8880 fluorescence intensity (a.u.)
GGCCGTTTGCAAGGCGTGGCTGGTTGGGTGGATGGATGGACGGAGTCACCTAGTGCAG	9140 fluorescence intensity (a.u.)
GCGGCACACCCACTCGTACAATTCACATGCTTCAACCTGTCGGAGTCACCTAGTGCAG	13100 fluorescence intensity (a.u.)
ACCAGCCTTTACAAAACCACGTGGTTACCTCATGATTTACCGGAGTCACCTAGTGCAG	9080 fluorescence intensity (a.u.)
CATATTCTCACGCCCTACCTTTTTCTCGTCTCTTGTGTCTCGGAGTCACCTAGTGCAG	12000 fluorescence intensity (a.u.)
CTCACCATTTCATTTTATTTTTCATTTTTCACCACAAATTCGGAGTCACCTAGTGCAG	9050 fluorescence intensity (a.u.)
CGCTTGAATGCTCTCGGAAACGGACGTTTTCTCTCGGGTCCGGAGTCACCTAGTGCAG	8220 fluorescence intensity (a.u.)
CTTCCGCACGACGTCGCGTACGTCTCGTCTCGGTATATTTCGGAGTCACCTAGTGCAG	8240 fluorescence intensity (a.u.)
ATTTCGTGCACTTCAGTTTCTTGCGTGCGAGCATCGATTTCGGAGTCACCTAGTGCAG	8850 fluorescence intensity (a.u.)
GTTTTGTTAAATCCATTATCTTGTTTGTTTTGTTCACTTTCGGAGTCACCTAGTGCAG	11900 fluorescence intensity (a.u.)
ATCACGTGTGCCACGTGTCCTTTGACCAGCGACACGTGTCCGGAGTCACCTAGTGCAG	8230 fluorescence intensity (a.u.)

Sequence	binding signal
AGCGTGCACATAATGAGTTTTTTCATCACGACAATTCTTCCGGAGTCACCTAGTGCAG	10200 fluorescence intensity (a.u.)
AGTTATTTATTTTGTTGTGGTTTGTTTTATAGTTAAAGGTCGGAGTCACCTAGTGCAG	10100 fluorescence intensity (a.u.)
ATGAATGGTTTCATACGCGTCTTCTCTCTTTTCTTGATGTCGGAGTCACCTAGTGCAG	10500 fluorescence intensity (a.u.)
CCAACTCTTGTCCTCGCGCGAAACCGATCAAAATCCCGGACGGAGTCACCTAGTGCAG	9090 fluorescence intensity (a.u.)
CCCTATACGACACCCTATATAATATCTGATATAACACACTCGGAGTCACCTAGTGCAG	8660 fluorescence intensity (a.u.)
ATCTTTTTATCGCACGTTTGATCATTCGTTTTATTAATAACGGAGTCACCTAGTGCAG	8590 fluorescence intensity (a.u.)
TGTGGATGGAAAAGAGAGAGAGTGTGTGGCAATAAAATCCCGGAGTCACCTAGTGCAG	8060 fluorescence intensity (a.u.)
TCACCGTTGGGGCTCGTTGGGGCTCGTTGGGGCTTGAGCCCGGAGTCACCTAGTGCAG	9210 fluorescence intensity (a.u.)
CAAGCTGAACTTCCTACTGCTCTTTCCAAATTTCAAGTTCCGGAGTCACCTAGTGCAG	8040 fluorescence intensity (a.u.)
CGTCGTCGTCGTCTTCTTCTTCAATACTATATACATATAACGGAGTCACCTAGTGCAG	8170 fluorescence intensity (a.u.)
CGAAAGCCCAGCCCACTCGGCTAAACCCCAACACGCACACCGGAGTCACCTAGTGCAG	9460 fluorescence intensity (a.u.)
CTCTCGTCCTGTCTTTGCTAGCTATCCAAATATCGCTATACGGAGTCACCTAGTGCAG	10800 fluorescence intensity (a.u.)
GCTTTCCTCTACTTCAATTTGCTAGTACCAGGCTAGTTTCCGGAGTCACCTAGTGCAG	11400 fluorescence intensity (a.u.)
AATAATTTACCCGCACGCAAGCCTGCACGCGAACGTTCGCCGGAGTCACCTAGTGCAG	8790 fluorescence intensity (a.u.)
CACCTCGGACTAATCGATCCCATTTAAATCGCCATCACTCCGGAGTCACCTAGTGCAG	9470 fluorescence intensity (a.u.)
TCCCCTAGACTCCTGTCCGCTCAAAACAATTTCCTCCAACCGGAGTCACCTAGTGCAG	8380 fluorescence intensity (a.u.)
ATTTGATACAATAATGGGGACTACTAGTGTTTGTTTTTTACGGAGTCACCTAGTGCAG	9980 fluorescence intensity (a.u.)
GACTAGTTACTACTTACTCTCTCTTGTTCTAACTACTCTACGGAGTCACCTAGTGCAG	8120 fluorescence intensity (a.u.)
CGGTCAACAAGTAAACGCACGCCCATTCGCTTCTTCACCACGGAGTCACCTAGTGCAG	9100 fluorescence intensity (a.u.)
TGTTGTCTTTGTGTCGTTGTTGCGGCCACCGTCATTGTGCCGGAGTCACCTAGTGCAG	11400 fluorescence intensity (a.u.)
GGATCACATTATCTCATACTTGGTCACACAGAAAATTAAACGGAGTCACCTAGTGCAG	8210 fluorescence intensity (a.u.)

Looked up one by one from the list above, two records:
Sequence	binding signal
GGCCGTTTGCAAGGCGTGGCTGGTTGGGTGGATGGATGGACGGAGTCACCTAGTGCAG	9140 fluorescence intensity (a.u.)
CACTTGTCAGTCGCACGTGCCCATCTCCAAACTCGCAACCCGGAGTCACCTAGTGCAG	8880 fluorescence intensity (a.u.)

Next part.

Sequence	binding signal
AATATAAGGGATTTTAACTTTTTATTTGCACTGTTTGACCCGGAGTCACCTAGTGCAG	8130 fluorescence intensity (a.u.)
CAATACTTTGAAAACAAATAATTGCTGTATGCGTCCATCTCGGAGTCACCTAGTGCAG	8420 fluorescence intensity (a.u.)
TCCTCTATCCCTTCATACTGATCGTGTTCCCTGGTTGAATCGGAGTCACCTAGTGCAG	8060 fluorescence intensity (a.u.)
CAGTTATCCTTTCACTGTGCGCCAAACATATCTCAGCTGTCGGAGTCACCTAGTGCAG	10300 fluorescence intensity (a.u.)
TGTCATCTGAATTCAACATGTTATACCACACATTGGATCGCGGAGTCACCTAGTGCAG	10500 fluorescence intensity (a.u.)
TTTTCCCGTGCGGGCGACGACCTAGCGCCGGTCCTCCTATCGGAGTCACCTAGTGCAG	8020 fluorescence intensity (a.u.)
GGAAGACAATTTTACCATAATTTGGGTGGAGGGGTGTTGGCGGAGTCACCTAGTGCAG	8790 fluorescence intensity (a.u.)
AACTTCTCTAGCTTTGTCACCCAAGCGCTCAATTTTTTTACGGAGTCACCTAGTGCAG	8480 fluorescence intensity (a.u.)
TTCATGTCAGAATCCTATGTTTTTCCTATTCCTTTGTTTTCGGAGTCACCTAGTGCAG	11000 fluorescence intensity (a.u.)
TTACATGTTCTTTTATCTTAACTGTTAACACTATCATGCTCGGAGTCACCTAGTGCAG	8110 fluorescence intensity (a.u.)
CTCACTTGTCTTGTTTCTCTTAAATCCAACTCAGCACAAACGGAGTCACCTAGTGCAG	8180 fluorescence intensity (a.u.)
TGGAGGTCGTGGCCTATTTCCGTCGGTTGTTTGTCAAAAACGGAGTCACCTAGTGCAG	9070 fluorescence intensity (a.u.)
TTTCGGTCTTTTTTTTGTCCTTTGTTTAGTTTCAGCTTGGCGGAGTCACCTAGTGCAG	12400 fluorescence intensity (a.u.)
TGTGCGGAGTTGCGGGGTGGTTCACGGCGGGTTCGCTATGCGGAGTCACCTAGTGCAG	8380 fluorescence intensity (a.u.)
ACTACACCCTCACCTTCACTGGCCACTCCCTCGGCGCCGGCGGAGTCACCTAGTGCAG	9740 fluorescence intensity (a.u.)
CCTAGGTCTCTTGTGCAAATTTCTCGCCGCTTGACTAAATCGGAGTCACCTAGTGCAG	9950 fluorescence intensity (a.u.)
TGTTGACTTTTTTTATTAACGTTTAGCATTTATCTTATTTCGGAGTCACCTAGTGCAG	18000 fluorescence intensity (a.u.)
CGCTTGTTCTCTTACCATTTTTTTCTGTAATTTATTTTTGCGGAGTCACCTAGTGCAG	8200 fluorescence intensity (a.u.)
AAAGTTGGGGTCAGGTGGTTTTGGTTCTGTGTTCAAGGGACGGAGTCACCTAGTGCAG	11500 fluorescence intensity (a.u.)
TTCGCCTCCACCTTCATCTGCTCCACCTGCGTCACAGTCACGGAGTCACCTAGTGCAG	11900 fluorescence intensity (a.u.)
AAATCTCTTCTACAACTACTACCACCACCTCACCTGCCTTCGGAGTCACCTAGTGCAG	10600 fluorescence intensity (a.u.)

Quoted from the listing:
TTACATGTTCTTTTATCTTAACTGTTAACACTATCATGCTCGGAGTCACCTAGTGCAG | binding signal: 8110 fluorescence intensity (a.u.)
TTCATGTCAGAATCCTATGTTTTTCCTATTCCTTTGTTTTCGGAGTCACCTAGTGCAG | binding signal: 11000 fluorescence intensity (a.u.)
TCCTCTATCCCTTCATACTGATCGTGTTCCCTGGTTGAATCGGAGTCACCTAGTGCAG | binding signal: 8060 fluorescence intensity (a.u.)
TTCGCCTCCACCTTCATCTGCTCCACCTGCGTCACAGTCACGGAGTCACCTAGTGCAG | binding signal: 11900 fluorescence intensity (a.u.)
